Laboratory results reported in PubChem BioAssay AID1487 (National Center for Advancing Translational Sciences (NCATS), 2009).
Values joined by “and” are separate entries in the source; they are usually repeats but may differ in a detail not shown here. Equal values may be shown once. The list shows a part of the results. These are further read-outs of the screen, such as a control signal, another cell line or another target. No call is given for them. Most of these compounds were active or inconclusive in the main read-out, so they are no random draw. The note in brackets gives the kind of curve behind each potency; many fits are weak.

Assay: qHTS Assay for Modulators of Lamin A Splicing
Settings: HeLa LMNA splicing GFP/RFP minigene ratio, 48 h
Method in brief: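 S3 HeLa cells stably expressing lamin A-EGFP splicing minigene plus DsRed2, 600 cells/well, 48 h compound exposure at 37C. Laser-scanning cytometry; analysed as GFP (500-530 nm)/RFP (575-640 nm) total intensity ratio; 0.5% DMSO vehicle.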

[1] = measured here: RFP viability control channel
[2] = measured here: GFP splicing reporter channel

Compound	AC50 [1]	AC50 [2]
C#CC[N+]1(C)C2CCC1CC(O)C2 (stereo not drawn)	0.141 µM [falling, partial curve, poor fit]	
C[C@H]1CC[C@@H]2[C@@H](C)C(=O)O[C@H]3O[C@@]4(C)CC[C@H]1[C@@]32OO4	0.355 µM [falling, single point]	0.2 µM [falling, single point]
CCOC(=O)c1ccc(NC(=O)c2cccn(Cc3ccccc3F)c2=O)cc1	7.08 µM [falling, partial curve, poor fit]	
NCCCCC(N)C(=O)O (stereo not drawn)	28.2 µM [falling, single point]	35.5 µM [falling, single point]
CC1(C)CC2(CCO1)NCCN1C(=O)CSC12 (stereo not drawn)	0.562 µM [falling, single point]	
ClC1C(Cl)C(Cl)C(Cl)C(Cl)C1Cl (stereo not drawn)	0.447 µM [falling, partial curve]	0.794 µM [falling, partial curve]
CN=C(SCc1cc2c(cc1Cl)OCO2)c1c(O)n(C)c(=O)n(C)c1=O	10 µM [rising, single point]	14.1 µM [rising, single point]
COc1ccc(NP(=O)(Oc2ccc(Cl)cc2)Oc2ccc(Cl)cc2)cc1OC	35.5 µM [rising, single point]	
O=c1n(Cl)c(=O)n(Cl)c(=O)n1Cl		20 µM [falling, single point]
O=[N+]([O-])c1ccc(N2CCCCCC2)c2ncccc12		35.5 µM [rising, single point]
C(#CCN1CCCCC1)COCc1ccccc1	1.58 µM [falling, full curve]	2 µM [falling, full curve, poor fit]
CCOC(=O)c1c(C)n(Cc2ccc3c(c2)OCO3)c2ccc(O)cc12	20 µM [rising, single point]	
Nc1c(C(=O)NCc2ccco2)c2nc3ccccc3nc2n1CCN1CCCCC1	20 µM [rising, single point]	
COP(=O)(OC)C(O)C(Cl)(Cl)Cl (stereo not drawn)	35.5 µM [rising, single point]	
COc1cc2c(cc1OC)-c1c3c(cc4c1[C@@H](C2)N(C)CC4)OCO3	11.2 µM [rising, partial curve]	
CCCC(C)C1(CC)C(=O)NC(=O)NC1=O (stereo not drawn)	10 µM [rising, partial curve, poor fit]	5.01 µM [falling, partial curve, poor fit]
O=Cc1ccco1		25.1 µM [rising, single point]
O=C(CN1CC=C(c2ccccc2)CC1)NC(=O)NCc1ccccc1	0.141 µM [rising, full curve, poor fit]	
CC(C)(C)C(=O)OC1=CN(Cc2ccccc2)S(=O)(=O)c2ccccc21	0.00891 µM [falling, full curve, poor fit]	
Cc1ccccc1CN1CCN(c2ccc(Cl)cc2)CC1	0.158 µM [falling, full curve, poor fit]	

Grouped by structure, the entries above containing an aryl methoxy group
Compound	AC50 [1]	AC50 [2]
COc1ccc(NP(=O)(Oc2ccc(Cl)cc2)Oc2ccc(Cl)cc2)cc1OC	35.5 µM [rising, single point]	
COc1cc2c(cc1OC)-c1c3c(cc4c1[C@@H](C2)N(C)CC4)OCO3	11.2 µM [rising, partial curve]	

Remaining list, next part:

Compound	AC50 [1]	AC50 [2]
c1ccc(Cn2ccnc2)cc1		0.00355 µM [rising, full curve, poor fit]
Cc1ccc(-c2nn(Cc3ccccc3)cc2C=O)cc1C	12.6 µM [rising, partial curve]	
CCn1c(NN=O)nc2ccccc21	17.8 µM [falling, partial curve, poor fit]	5.62 µM [falling, partial curve, poor fit]
C[C@]12CC[C@@H]3c4ccc(O)cc4C(=O)C[C@H]3[C@@H]1CC[C@@H]2O	10 µM [rising, partial curve, poor fit]	
Cc1ccsc1-c1nc(CSCC(=O)N2CCC3(CC2)OCCO3)c(C)o1	15.8 µM [rising, partial curve]	11.2 µM [rising, partial curve]
Cc1cc(C)cc(N2C(=O)NC(=O)/C(=C/c3cccn3-c3ccc(Cl)cc3)C2=O)c1	2.82 µM [rising, full curve, poor fit]	
Cc1ccc(/C=C/C(=O)C2C(=O)c3ccccc3C2=O)cc1	35.5 µM [falling, single point]	
COc1ccc(C)cc1NC(=O)c1cccn(Cc2ccccc2Cl)c1=O		6.31 µM [falling, partial curve, poor fit]
CCOc1cc(C2NCc3ccccc3-n3cccc32)ccc1O (stereo not drawn)	35.5 µM [rising, single point]	
CCC(=NC(C)c1ccccc1)c1c(O)n(C)c(=O)n(C)c1=O (stereo not drawn)	7.08 µM [rising, partial curve]	3.16 µM [rising, full curve]
NC(=Nc1ccccc1)Nc1ccccc1	0.631 µM [rising, full curve]	0.891 µM [rising, full curve, poor fit]
N#CC(C#N)=Cc1ccc(O)c(O)c1		22.4 µM [falling, single point]
CC(C)[C@H]1C(=O)N2CCC[C@H]2[C@]2(O)O[C@](NC(=O)[C@@H]3C=C4c5cccc6[nH]cc(c56)C[C@H]4N(C)C3)(C(C)C)C(=O)N12	5.62 µM [rising, single point]	
Cc1oc(-c2ccccc2)nc1CN1C(=O)C(C)N=C(c2ccccc2F)c2cc(Cl)ccc21 (stereo not drawn)	35.5 µM [rising, single point]	22.4 µM [rising, single point]
CCCN1CCc2cc(O)cc3c2C1Cc1ccc(O)c(O)c1-3 (stereo not drawn)	11.2 µM [falling, partial curve]	11.2 µM [falling, partial curve]
CCN[C@]1(c2cccs2)CCCCC1=O	11.2 µM [falling, single point]	0.00282 µM [falling, full curve, poor fit]
CCNC(=O)NC(=O)C(C)OC(=O)c1c(C)nn(Cc2ccccc2Cl)c1Cl (stereo not drawn)	15.8 µM [rising, single point]	12.6 µM [rising, single point]
CCn1c(O)c(/C(C)=N/N2CCCCC2c2cccnc2)c(=O)[nH]c1=S (stereo not drawn)	22.4 µM [rising, single point]	
COP(=O)(OC)OC=C(Cl)Cl	1.58 µM [rising, partial curve]	8.91 µM [rising, partial curve, poor fit]
CC(C)C(Br)C(=O)NC(N)=O (stereo not drawn)	0.000794 µM [rising, full curve, poor fit]	20 µM [falling, single point]

Molecules shown so far that have a thiophene ring, fused or not:
Compound	AC50 [1]	AC50 [2]
Cc1ccsc1-c1nc(CSCC(=O)N2CCC3(CC2)OCCO3)c(C)o1	15.8 µM [rising, partial curve]	11.2 µM [rising, partial curve]
CCN[C@]1(c2cccs2)CCCCC1=O	11.2 µM [falling, single point]	0.00282 µM [falling, full curve, poor fit]

The list goes on.

Compound	AC50 [1]	AC50 [2]
CCOP(=S)(OCC)SCn1c(=O)oc2cc(Cl)ccc21	22.4 µM [rising, single point]	11.2 µM [falling, partial curve, poor fit]
NC(=O)CI	35.5 µM [falling, single point]	35.5 µM [falling, single point]
C[N+]1(C)C2CC[C@H]1CC(OC(=O)[C@@H](CO)c1ccccc1)C2 (stereo partly drawn)		0.00891 µM [falling, full curve, poor fit]
CC(C)NCC(O)COc1cccc2[nH]ccc12 (stereo not drawn)	126 nM [falling, single point] and 6.31 µM [falling, single point]	
CCCC(O)C(CC)CO (stereo not drawn)	35.5 µM [falling, single point]	2.51 µM [falling, single point]
[Cl-].[Cl-].[Hg+2]	1.26 µM [falling, full curve]	1 µM [falling, full curve]
COCCCn1c(N)c(C(=O)NCCC(C)C)c2nc3ccccc3nc21	35.5 µM [falling, single point]	25.1 µM [falling, single point]
C(#CCN1CCCC1)CN1CCCC1	3.55 µM [rising, partial curve, poor fit]	
COc1ccc2[nH]c3c(c2c1)CCNC3	0.00562 µM [falling, full curve, poor fit]	
O=c1[nH]sc2cc(F)ccc12	22.4 µM [falling, single point]	3.16 µM [falling, single point]
COc1cccc(-n2c(SCC(=O)c3ccc(Cl)cc3)nc3c([nH]c4ccccc43)c2=O)c1	7.08 µM [falling, partial curve]	11.2 µM [falling, partial curve]
CN(C)S(=O)(=O)c1ccc(C(=O)NNc2nc(-c3ccccc3)c3cc(Br)ccc3n2)cc1	31.6 µM [rising, single point]	25.1 µM [rising, partial curve]
CS(=O)(=O)Nc1ccc(Cc2noc(-c3ccc4[nH]cc(CCN)c4c3)n2)cc1	1 µM [falling, full curve]	
Cc1ccc(NC(=O)COc2ccc(-n3ccnc3)cc2)cc1Cl	11.2 µM [rising, partial curve]	5.01 µM [rising, partial curve]
O=CC(Cl)P(=O)(N1CCCCC1)N1CCCCC1 (stereo not drawn)	35.5 µM [rising, single point]	
CCNc1nc(Cl)nc(NCC)n1		35.5 µM [falling, single point]
COc1ccccc1OP(=O)(Nc1cccnc1)Oc1ccccc1OC	22.4 µM [rising, single point]	
C=CCN1C(=O)C2(C(C(=O)OCC)=C(N)Oc3c2c(=O)oc2ccccc32)c2ccccc21 (stereo not drawn)	3.55 µM [rising, single point]	
